Measurements reported in PubChem BioAssay AID1508597 (Cure First, 2020)
In all, the deposit lists about 2,100 reagents; this is a part drawn at random. 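Calls flag viability under 80% in either arm, not effects specific to rucaparib; the reference for percent is not stated.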 Not given: the 100% reference.

- Test: 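Knock-downs altering ovarian cancer cell survival with or without PARP inhibitor rucaparib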 (primary screen)
- System: human ovarian carcinoma lines grown from tumours: OCI-P5x (papillary serous) and OCI-C5x (clear cell)
- Reagent: siRNA pool against human genes, 1.25 pmol siRNA per well
- Time to read-out: 72 h or 96 h, depending on the cell culture
- Treatment: rucaparib 20 µM (about IC30) or vehicle, present until read-out
- Read-out: 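Luminescent ATP-based viability assay read 72 or 96 h after transfection, depending on culture, given as normalised percent viability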
- Reading the numbers: viability, normalised: higher = more viable cells remaining
- Hit rule: 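a well counts as a hit if its normalised viability is under 80 percent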
- Meaning of the calls: active = viability under 80%; inactive = viability 80% or more

With SMN2, rucaparib or vehicle Rucaparib, cell line OCI-C5x (clear cell), technical replicate 1, what does the deposit list?
viability, normalised (%): 48; call: active

With SMN2, rucaparib or vehicle Rucaparib, cell line OCI-C5x (clear cell), technical replicate 2, how do the results read?
viability, normalised (%): 32.6; call: active

For SMN2, rucaparib or vehicle Rucaparib, cell line OCI-C5x (clear cell), technical replicate 3, what does the deposit list?
viability, normalised (%): 37.3; call: active

For SMN2, rucaparib or vehicle Rucaparib, cell line OCI-P5x (serous), technical replicate 1, what was measured?
viability, normalised (%): 42.7; call: active

With SMN2, rucaparib or vehicle Rucaparib, cell line OCI-P5x (serous), technical replicate 2, what does the deposit list?
viability, normalised (%): 41.4; call: active

For SMN2, rucaparib or vehicle Rucaparib, cell line OCI-P5x (serous), technical replicate 3, what was measured?
viability, normalised (%): 42.5; call: active

For SMN2, rucaparib or vehicle Vehicle, cell line OCI-C5x (clear cell), technical replicate 1, how do the results read?
viability, normalised (%): 43.8; call: active

What did the screen give for SMN2, rucaparib or vehicle Vehicle, cell line OCI-C5x (clear cell), technical replicate 2?
viability, normalised (%): 31.7; call: active

For SMN2, rucaparib or vehicle Vehicle, cell line OCI-C5x (clear cell), technical replicate 3, how do the results read?
viability, normalised (%): 46.8; call: active

For SMN2, rucaparib or vehicle Vehicle, cell line OCI-P5x (serous), technical replicate 1, how do the results read?
viability, normalised (%): 44; call: active

What did the screen give for SMN2, rucaparib or vehicle Vehicle, cell line OCI-P5x (serous), technical replicate 2?
viability, normalised (%): 45.9; call: active

Which result is listed for SMN2, rucaparib or vehicle Vehicle, cell line OCI-P5x (serous), technical replicate 3?
viability, normalised (%): 101; call: inactive

Laid out differently: 2 of the entries above
{"gene symbol": "SMN2", "rucaparib or vehicle": "Vehicle", "cell line": "OCI-C5x (clear cell)", "technical replicate": "1", "viability, normalised (%)": 43.8, "call": "active"}
{"gene symbol": "SMN2", "rucaparib or vehicle": "Vehicle", "cell line": "OCI-C5x (clear cell)", "technical replicate": "2", "viability, normalised (%)": 31.7, "call": "active"}

The list goes on:
For NEIL2, rucaparib or vehicle Rucaparib, cell line OCI-C5x (clear cell), technical replicate 1, how do the results read?
viability, normalised (%): 62.5; call: active

How did the screen score NEIL2, rucaparib or vehicle Rucaparib, cell line OCI-C5x (clear cell), technical replicate 2?
viability, normalised (%): 59.3; call: active

How did the screen score NEIL2, rucaparib or vehicle Rucaparib, cell line OCI-C5x (clear cell), technical replicate 3?
viability, normalised (%): 63.3; call: active

With NEIL2, rucaparib or vehicle Rucaparib, cell line OCI-P5x (serous), technical replicate 1, how do the results read?
viability, normalised (%): 93.2; call: inactive

What is on record for NEIL2, rucaparib or vehicle Rucaparib, cell line OCI-P5x (serous), technical replicate 2?
viability, normalised (%): 72.5; call: active

Which result is listed for NEIL2, rucaparib or vehicle Rucaparib, cell line OCI-P5x (serous), technical replicate 3?
viability, normalised (%): 69.5; call: active

Which result is listed for NEIL2, rucaparib or vehicle Vehicle, cell line OCI-C5x (clear cell), technical replicate 1?
viability, normalised (%): 48.8; call: active

How did the screen score NEIL2, rucaparib or vehicle Vehicle, cell line OCI-C5x (clear cell), technical replicate 2?
viability, normalised (%): 51.3; call: active

For NEIL2, rucaparib or vehicle Vehicle, cell line OCI-C5x (clear cell), technical replicate 3, what does the deposit list?
viability, normalised (%): 59; call: active

Which result is listed for NEIL2, rucaparib or vehicle Vehicle, cell line OCI-P5x (serous), technical replicate 1?
viability, normalised (%): 61.4; call: active

With NEIL2, rucaparib or vehicle Vehicle, cell line OCI-P5x (serous), technical replicate 2, what was measured?
viability, normalised (%): 58.6; call: active

How did the screen score NEIL2, rucaparib or vehicle Vehicle, cell line OCI-P5x (serous), technical replicate 3?
viability, normalised (%): 89.1; call: inactive
